Results are given in words; binding and its absence hold for the method and conditions named. Binding seen in cells or lysates may run through a third protein. Some entries that bind do so weakly or less than the wild type. Tags and fused reporters may be left off the sequences shown.
T1: Whi7-GFP (S. cerevisiae) (UniProt P36167)
T1 sequence: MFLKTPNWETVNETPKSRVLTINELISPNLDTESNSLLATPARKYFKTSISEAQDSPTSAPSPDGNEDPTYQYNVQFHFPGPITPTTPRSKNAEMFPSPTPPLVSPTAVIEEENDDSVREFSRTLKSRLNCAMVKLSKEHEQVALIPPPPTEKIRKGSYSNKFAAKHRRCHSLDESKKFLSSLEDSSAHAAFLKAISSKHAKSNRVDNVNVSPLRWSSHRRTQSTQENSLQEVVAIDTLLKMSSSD

Chains of the proteins cited; added tags and fusions are not shown. Lines headed by an entry give the natural chain unless they say otherwise; changes in a name come on top.
UniProt P17157: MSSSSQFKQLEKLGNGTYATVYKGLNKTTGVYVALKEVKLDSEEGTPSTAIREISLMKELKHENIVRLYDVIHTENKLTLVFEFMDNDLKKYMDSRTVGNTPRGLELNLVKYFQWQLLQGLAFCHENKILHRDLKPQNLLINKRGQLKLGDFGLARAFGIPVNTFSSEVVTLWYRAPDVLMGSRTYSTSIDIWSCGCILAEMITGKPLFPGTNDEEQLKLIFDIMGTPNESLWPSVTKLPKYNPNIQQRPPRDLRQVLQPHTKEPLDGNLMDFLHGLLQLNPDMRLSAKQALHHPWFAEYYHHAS

T2: Whi7-HA (S. cerevisiae) (UniProt P36167)
T2 sequence: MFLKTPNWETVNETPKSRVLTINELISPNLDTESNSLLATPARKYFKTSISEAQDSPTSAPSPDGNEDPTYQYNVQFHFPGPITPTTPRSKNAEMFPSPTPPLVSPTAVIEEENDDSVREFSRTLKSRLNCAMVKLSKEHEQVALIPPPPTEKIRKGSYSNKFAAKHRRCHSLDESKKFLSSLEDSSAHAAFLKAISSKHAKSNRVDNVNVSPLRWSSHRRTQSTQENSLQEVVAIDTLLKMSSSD


Key:
[1] = biological target: T1, Whi7-GFP (S. cerevisiae); test: co-IP; Whi7-GFP immunoprecipitated from crude yeast extracts; Pho85-HA or Pho85^E53A-HA detected by western blot in TE, NR and IP fractions
[2] = biological target: T2, Whi7-HA (S. cerevisiae); test: co-IP; Whi7-HA immunoprecipitated from crude extracts of cells expressing myc-tagged Swi4; Swi4 detected by western analysis

| Molecule | binding [1] | binding [2] |
| --- | --- | --- |
| Pho85-HA (from UniProt P17157 1-305) (enzyme) | no binding |  |
| Pho85^E53A-HA (from UniProt P17157 1-305) (enzyme) | binds |  |
| myc-tagged Swi4 (protein, UniProt P25302 1-1093) MPFDVLISNQKDNTNHQNITPISKSVLLAPHSNHPVIEIATYSETDVYECYIRGFETKIVMRRTKDDWINITQVFKIAQFSKTKRTKILEKESNDMQHEKVQGGYGRFQGTWIPLDSAKFLVNKYEIIDPVVNSILTFQFDPNNPPPKRSKNSILRKTSPGTKITSPSSYNKTPRKKNSSSSTSATTTAANKKGKKNASINQPNPSPLQNLVFQTPQQFQVNSSMNIMNNNDNHTTMNFNNDTRHNLINNISNNSNQSTIIQQQKSIHENSFNNNYSATQKPLQFFPIPTNLQNKNVALNNPNNNDSNSYSHNIDNVINSSNNNNNGNNNNLIIVPDGPMQSQQQQQHHHEYLTNNFNHSMMDSITNGNSKKRRKKLNQSNEQQFYNQQEKIQRHFKLMKQPLLWQSFQNPNDHHNEYCDSNGSNNNNNTVASNGSSIEVFSSNENDNSMNMSSRSMTPFSAGNTSSQNKLENKMTDQEYKQTILTILSSERSSDVDQALLATLYPAPKNFNINFEIDDQGHTPLHWATAMANIPLIKMLITLNANALQCNKLGFNCITKSIFYNNCYKENAFDEIISILKICLITPDVNGRLPFHYLIELSVNKSKNPMIIKSYMDSIILSLGQQDYNLLKICLNYQDNIGNTPLHLSALNLNFEVYNRLVYLGASTDILNLDNESPASIMNKFNTPAGGSNSRNNNTKADRKLARNLPQKNYYQQQQQQQQPQNNVKIPKIIKTQHPDKEDSTADVNIAKTDSEVNESQYLHSNQPNSTNMNTIMEDLSNINSFVTSSVIKDIKSTPSKILENSPILYRRRSQSISDEKEKAKDNENQVEKKKDPLNSVKTAMPSLESPSSLLPIQMSPLGKYSKPLSQQINKLNTKVSSLQRIMGEEIKNLDNEVVETESSISNNKKRLITIAHQIEDAFDSVSNKTPINSISDLQSRIKETSSKLNSEKQNFIQSLEKSQALKLATIVQDEESKVDMNTNSSSHPEKQEDEEPIPKSTSETSSPKNTKADAKFSNTVQESYDVNETLRLATELTILQFKRRMTTLKISEAKSKINSSVKLDKYRNLIGITIENIDSKLDDIEKDLRANA |  | binds |
